According to patent publication US20260042862A1:
Results are given in words; binding and its absence hold for the method and conditions named. Some entries that bind do so weakly or less than the wild type.

Sequences of proteins named here, by UniProt entry; tags and fusion partners are left off. Residues count along the entry.
UniProt P51654, residues 25-559: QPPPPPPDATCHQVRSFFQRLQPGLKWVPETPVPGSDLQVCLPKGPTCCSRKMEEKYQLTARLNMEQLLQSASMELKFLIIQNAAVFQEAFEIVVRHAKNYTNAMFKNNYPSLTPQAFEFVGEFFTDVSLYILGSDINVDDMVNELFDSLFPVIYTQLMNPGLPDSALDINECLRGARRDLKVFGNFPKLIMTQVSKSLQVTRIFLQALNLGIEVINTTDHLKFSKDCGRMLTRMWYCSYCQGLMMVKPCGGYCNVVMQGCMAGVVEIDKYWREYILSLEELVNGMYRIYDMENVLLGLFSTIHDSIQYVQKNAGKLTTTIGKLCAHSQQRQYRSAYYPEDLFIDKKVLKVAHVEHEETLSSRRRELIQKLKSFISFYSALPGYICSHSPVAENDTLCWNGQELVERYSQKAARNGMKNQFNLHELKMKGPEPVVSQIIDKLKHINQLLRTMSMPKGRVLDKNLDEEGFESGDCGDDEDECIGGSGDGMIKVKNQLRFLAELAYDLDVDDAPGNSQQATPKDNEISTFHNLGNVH
UniProt Q8CFZ4: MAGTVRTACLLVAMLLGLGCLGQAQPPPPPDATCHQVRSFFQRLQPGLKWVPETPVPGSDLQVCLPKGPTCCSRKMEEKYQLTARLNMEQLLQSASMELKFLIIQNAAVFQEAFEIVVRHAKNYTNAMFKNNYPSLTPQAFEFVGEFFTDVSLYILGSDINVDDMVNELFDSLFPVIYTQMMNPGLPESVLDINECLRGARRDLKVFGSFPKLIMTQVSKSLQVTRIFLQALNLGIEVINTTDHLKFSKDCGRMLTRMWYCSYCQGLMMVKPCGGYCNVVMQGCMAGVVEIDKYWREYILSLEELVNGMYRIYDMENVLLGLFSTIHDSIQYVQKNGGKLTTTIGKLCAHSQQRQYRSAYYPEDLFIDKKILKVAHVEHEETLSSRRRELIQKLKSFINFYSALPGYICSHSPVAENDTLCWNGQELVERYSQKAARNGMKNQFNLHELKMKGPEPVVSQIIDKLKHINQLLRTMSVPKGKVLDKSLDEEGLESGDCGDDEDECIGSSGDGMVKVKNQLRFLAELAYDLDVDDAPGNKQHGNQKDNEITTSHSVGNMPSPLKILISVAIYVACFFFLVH

Key:
[1] = molecular target: recombinant human GPC-3 protein (human) (UniProt P51654); assay: ELISA on recombinant human GPC-3
[2] = molecular target: recombinant human GPC-3 protein (human) (UniProt P51654); assay: binding ELISA, absorbance 450nm-570nm against Biotin-hGPC-3 (nM)
[3] = molecular target: recombinant human GPC-3 protein (human) (UniProt P51654); assay: cross-reactivity binding ELISA with biotinylated recombinant GPC-3, absorbance 450nm-570nm
[4] = molecular target: recombinant cynomolgus GPC-3 protein (cynomolgus); assay: cross-reactivity ELISA, biotinylated recombinant GPC-3
[5] = molecular target: recombinant mouse GPC-3 protein (mouse) (UniProt Q8CFZ4); assay: as above
[6] = molecular target: recombinant cynomolgus GPC-3 protein (cynomolgus); assay: cross-reactivity binding ELISA with biotinylated recombinant GPC-3, absorbance 450nm-570nm
[7] = molecular target: recombinant mouse GPC-3 protein (mouse) (UniProt Q8CFZ4); assay: as above
[8] = molecular target: recombinant mouse GPC-3 protein (mouse) (UniProt Q8CFZ4); assay: restated in Example 9 (cross-reactivity of Example 4)

Measured: binding

B1: anti-GPC-3 IgG1 clone 1D8 (antibody, V domains shown)
VH: QVQLVQSGAEVKKPGASVKVSCKASGYTFTSYGISWVRQAPGQGLEWMGWISAYNGNTNYAQKLQGRVTMTTDTSTSTAYMELRSLRSDDTAVYYCARDGGLIAAAFGYYYYGMDVWGQGTT
VL: EIVLTQSPGTLSLSPGERATLSCRASQSVSSYLAWYQQKPGQAPRLLIYGASSRATGIPDRFSGSGSGTDFTLTISRLEPEDFAVYYCQQYERPPTFGGGTK
binds: [1] | [2] | [3]

B2: anti-GPC-3 IgG1 clone 1E1 (antibody, V domains shown)
VH: QVQLQQWGAGLLKPSETLSLTCAVYGGSFSGYYWSWIRQPPGKGLEWIGEINHSGSTNYNPSLKSRVTISVDTSKNQFSLKLSSVTAADTAVYYCARLYKRRPFDYWGQGTL
VL: VTTLTQSPGTLSLSPGERATLSCRASESVSSRYLAWYQQRPGQAPRLLIYGASRRATGSPERFSGGGSGTDFTLTISRLEPEDFAVYYCQHYGNSPGTFGQGTK
not listed: [1] | [8]
binds: all other assays above

B3: anti-GPC-3 IgG1 clone 1F1 (antibody, V domains shown)
VH: QVQLVQSGAEVKKPGASVKVSCKASGYTFTSYGISWVRQAPGQRLEWMGWINAGNGNTKYSQKFQGRVTITRDTSASTAYMELSSLRSEDTAVYYCATVVYWGQGTL
VL: EIVLTQSPLSLPVTPGEPASISCRSSQSLLHSNGYNYLDWYLQKPGQSPQILIYLGSHRASGVPDRFSGSASGTDFTLKISRVEAEDVGVYYCMQALQTPLTFGGGTK
binds: all assays above

B4: anti-GPC-3 IgG1 clone 1F4 (antibody, V domains shown)
VH: QVQLQQWGAGLLKPSETLSLTCAVYGGSFSGYYWSWIRQPPGKGLEWIGEINHSGSTNYNPSLKSRVTISVDTSKNQFSLKLSSVTVADTAVYYCARLYKRRPFDYWGQGTL
VL: ETTLTQSPGTLSLSPGERATLSCRASQSVSSTYLAWYQQKPGQAPRLLIYGASRRATGSPERFSGGGSGTDFTLTISRLEPEDFAVYYCQHYGNSPGTFGQGTK
not listed: [8]
binds: all other assays above

B5: anti-GPC-3 IgG1 clone 1H1 (antibody, V domains shown)
VH: QVQLQESGAGLLRPSETLSLTCAVYGGSFSGYYWSWIRQPPGKGLEWLGEISHSGSTNYNPSLKSRVTISVDTSKNQFSLKLSSVTAADAAVYYCARWVWSGYYNGEGYFDLWGRGTL
VL: ETTLTQSPGTLSLSPGERATLSCRASQSVSSSYLAWYQQKPGQAPRLLIYGASSRATGIPDRFSGRGSGTDFTLTITRLEPEDFAVYYCQYYGSSPRTFGQGTK
binds: all assays above

B6: anti-GPC-3 IgG1 clone 1H10 (antibody, V domains shown)
VH: QLQLQESGGGLVQPGGSLRLSCAASGFTFSSYVMSWVRQAPGKGLEWVSTISGSGGSTYYADSVKGRFTISRDNSKNTLYLQMSSLRAEDTAVYYCVMGWYFDLWGRGTL
VL: EIVLTQSPGTLSLSPGERATLSCRASQSVSSSYLAWYQQKPGQAPRLLIYDASNRATGIPARFSGSGSGTDFTLTISSLEPEDFAVYYCQQRSNWPPRATFGQGTR
not listed: [8]
binds: all other assays above

B7: anti-GPC-3 IgG1 clone 3C12 (antibody, V domains shown)
VH: QVTLKESGPTLVKPTQTLTLTCTFSGFSLSTSGVGVGWIRQPPGKALEWLALIYWNDDKRYSPSLKSRLTITKDTSKNQVVLTMTNMDPVDTATYYCAHSRIAARRVLDYWGQGTL
VL: QSVLTQPPSASVAPGKTARITCGGNNIGSKSVHWYQQKPGQSPVLVIYQDTKRPSGIPERFSGSNSGNTATLTISGAQPMDEADYYCQAWYSTIMVFGGGTK
not listed: [8]
binds: all other assays above

B8: anti-GPC-3 IgG1 clone 3G12 (antibody, V domains shown)
VH: QVQLQQWGAGLLKPSETLSLTCAVYGGSFSGYYWSWIRQPPGKGLEWIGEINHSGSTNYNPSLKSRVTISVDTSKNQFSLKLSSVTAADTAVYYCARLYKRRPFDYWGQGTL
VL: ETTLTQSPGTLSLSPGERATLSCRASQSVSSSYLAWYQQKRGQAPRLLIYGASRRATGIPDRFSGSGSGSDFTLTISRLEPEDFAVYYCQQYGSSPSTFGQGTK
not listed: [8]
binds: all other assays above

B9: anti-GPC-3 IgG1 clone 4G4 (antibody, V domains shown)
VH: QVQLQQWGAGLLKPSETLSLTCAVYGGSFSGYYWSWIRQPPGKGLEWIGEINHSGSTNYNPSLKSRVTISVDTSKNQFSLKLSSVTAADTAVYYCARLYKRRPFDYWGQGTL
VL: ETTLTQSPGTLSLSPGERATLSCRASQSVSSSYLAWYQQKPGQAPRLLIYNASRRATGIPDRFSGSGSGADFTLTISRLDPEDFAVYFCQQYGSSPQTFGQGTK
not listed: [8]
binds: all other assays above

B10: anti-GPC-3 IgG1 clone 5C4 (antibody, V domains shown)
VH: QVQLQESGGGLVKPGGSLRLSCAASGFTFSSYSMNWVRQAPGKGLEWVAVISYDGSNKYYADSVKGRFTISRDNSKNTLYLQMNSLRTEDTAVYYCARGAGPFTGFNWFDPWGQGTL
VL: EIVLTQSPATLSVSPGERATLSCRASQSVDSYLAWYQQKPGQAPRLLIYSASTRATGIPARFSGTGSGTEFTLTISSLQSEDFAVYYCQQYKRWPTWTFGLGTR
binds: all assays above

B11: anti-GPC-3 IgG1 clone 1A12 (antibody, V domains shown)
VH: QVQLQQWGAGLLKPSETLSLTCAAYGGSFSGYYWSWIRQPPGKGLEWIGEINHSGSTNYNPSLKSRVTISVDTSKNQFSLKLSSVTAADTAVYYCARLYKRRPFDYWGQGTL
VL: ETTLTQSPGTLSLSPGERATLSCRASQSISSIYLAWYQQKPGQAPRLLIYGASRRATGIPDRFSGSGSGTDFTLTISRLEPEDFAVYYCQQYGSSLRTFGQGTK
not listed: [8]
binds: all other assays above

B12: anti-GPC-3 IgG1 clone 1C4 (antibody, V domains shown)
VH: QVQLVQSGGGLVKPGRSLRLSCTASGFTFGDYAMHWVRQAPGKGLEWVAVISYDGSNKYYADSVKGRFTISRDNSKNTLYLQMNSLRAEDTAVYYCARDYGDYYRPYGMDVWGQGTT
VL: DIQMTQSPSTLSASVGDRVTITCRASQSISKWLAWYQHKPGKAPKVLIYKASTLQSGVPSRFSGSGSGTEFTLTISSLQPEDFATYYCQQLNSYPLTFGGGTK
binds: all assays above

B13: anti-GPC-3 IgG1 clone 1D3 (antibody, V domains shown)
VH: QVQLVQSGAEVKKPGASVKVSCKASGYTFTGYYMHWVRQAPGQGLEWMGWINPNSGGTNYAQNFQGRVTITRDTSASTAYMELSSLRSEDTAVYYCARGSWQTGSFDIWGQGTT
VL: SYELTQPPSVSGTPGQSVTISCSGSNSNLGSNYVYWYQVVPGTAPKLVIYRNKYRPPGVPDRFSGSKSGTSASLAISGLRSDDEAEYYCSGWDDSLSGRLFGGGTK
not listed: [8]
binds: all other assays above
